Assay results from patent publication US20250082570A1, “COMBINATION THERAPY FOR TREATING NON-TUBERCULOUS MYCOBACTERIAL LUNG DISEASE” (priority 2021, published 2025).
For at least one compound, name, drawing or mass did not settle the structure.

Tested on: M abscessus ATCC 19977 Type strain
Experiment: checkerboard minimum inhibitory concentration (MIC) assay with FICI calculation
Format: cell-based
Settings: in combination with amikacin; NTM strains

Compound: C[C@@H](O)[C@H]1C(=O)N2C(C(=O)O)=C(SCCN=CN)C[C@H]12 [Imipenem]
- synergy with amikacin against NTM: synergistic with amikacin
